Experimental data: PubChem BioAssay AID1224828 (NIAID, 2016)
Shown is one part, drawn at random, of about 17,000 reagents tested. 762 of them (4.5%) count as active. 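Active calls include both raised and lowered p65 entry, mostly lowered; wells with fewer than 50 cells lack a z-score.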 The raw values are shown without normalisation. Entries without a mark were called inactive.

- Test: 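Regulators linking TLR4 signalling to p65 nuclear translocation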 (primary screen)
- System: mouse RAW264.7 G9 macrophage reporter cells (GFP-p65, Tnf promoter-mCherry)
- Knock-down reagent: siRNA pool against mouse genes, 100 nM
- Time to read-out: 2 days siRNA transfection, then 40 min LPS before fixation
- Challenge: LPS (Salmonella minnesota R595) at 10 ng/ml
- Measured: 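Imaged p65 nuclear translocation ratio, normalised to the plate median, converted to robust z-scores and averaged across two replicates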
- Reading the numbers: p65 translocation robust z-score: higher = more nuclear NF-kappaB p65 after LPS than the plate median; nuclear/cytoplasmic p65 ratio: higher = more nuclear NF-kappaB p65
- Hit rule: 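Active if robust z is above 3.3 (negative regulators) or below -1.56, the Tlr4 control median (positive regulators); activity score 50 or more; control wells not called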
- Meaning of the calls: active = hit (p65 shift raised or lowered); inactive = no clear change

| p65 translocation robust z-score | nuclear/cytoplasmic p65 ratio, rep 1 | nuclear/cytoplasmic p65 ratio, rep 2 | low cell count flag | gene |
| --- | --- | --- | --- | --- |
| – | 1.29 | 1.15 | fewer than 50 cells per well; well left out of scoring | Trappc2l |
| -0.13 | 1.57 | 1.55 | enough cells to score | Fam204a |
| – | 1.23 | 1.12 | fewer than 50 cells per well; well left out of scoring | Cd274 |
| -0.98 | 1.41 | 1.33 | enough cells to score | Zfp64 |
| -0.04 | 1.39 | 1.21 | enough cells to score | Rwdd2a |
| -0.67 | 1.46 | 1.4 | enough cells to score | Serinc3 |
| -0.47 | 1.55 | 1.43 | enough cells to score | Dctn5 |
| -1.13 | 1.24 | 1.42 | enough cells to score | Cemip |
| -1.07 | 1.26 | 1.18 | enough cells to score | Tab3 |
| – | 1.1 | 1.3 | fewer than 50 cells per well; well left out of scoring | Ftmt |
| -0.86 | 1.37 | 1.3 | enough cells to score | Pinx1 |
| -0.48 | 1.46 | 1.45 | enough cells to score | Klf10 |
| -0.43 | 1.58 | 1.33 | enough cells to score | Cdk20 |
| -2.77 (active) | 1.06 | 1.04 | enough cells to score | Ear2 |
| – | 1.32 | 1.19 | fewer than 50 cells per well; well left out of scoring | Fhl4 |

No new results follow: an excerpt of the list.
| p65 translocation robust z-score | nuclear/cytoplasmic p65 ratio, rep 1 | nuclear/cytoplasmic p65 ratio, rep 2 | low cell count flag | gene |
| --- | --- | --- | --- | --- |
| -0.13 | 1.57 | 1.55 | enough cells to score | Fam204a |
| – | 1.23 | 1.12 | fewer than 50 cells per well; well left out of scoring | Cd274 |
| -0.98 | 1.41 | 1.33 | enough cells to score | Zfp64 |

Additional entries:
| p65 translocation robust z-score | nuclear/cytoplasmic p65 ratio, rep 1 | nuclear/cytoplasmic p65 ratio, rep 2 | low cell count flag | gene |
| --- | --- | --- | --- | --- |
| -0.15 | 1.46 | 1.36 | enough cells to score | Coch |
| 0.09 | 1.37 | 1.29 | enough cells to score | Semg1 |
| -1.14 | 1.49 | 1.31 | enough cells to score | Nsd2 |
| – | 1.21 | 1.16 | fewer than 50 cells per well; well left out of scoring | Zfp212 |
| -0.73 | 1.4 | 1.48 | enough cells to score | Galr2 |
| 0.38 | 1.58 | 1.9 | enough cells to score | Csn3 |
| – | 1.74 | 2.98 | fewer than 50 cells per well; well left out of scoring | 2310057M21Rik |
| 0.62 | 1.74 | 1.68 | enough cells to score | Acox2 |
| – | 1.48 | 1.26 | fewer than 50 cells per well; well left out of scoring | Rttn |
